Reference: article PMC12040169 (PLOS Biology, 2025)
The list shows a part of the results.

system: T1, CTL2-GFP (C. trachomatis L2/434/Bu, GFP-expressing); parameters: species or system HeLa; Intracellular C. trachomatis growth in HeLa cells, bulk GFP fluorescence relative to DMSO; conditions: bulk GFP, single well; 28.5 h, 10 µM; inhibitor
T1 construct: L2/434/Bu, GFP-expressing

Structure (SMILES) | % of control remaining [%]
CC(C)C[C@@H]1N[C@H](C(=O)NCc2cccnc2)Cc2c[nH]c3cccc1c23 [CBK289418] | 102.255
COc1ccc(OC)c(CN2CCN(CCCc3ccccc3)CC2)c1 [CBK264304] | 98.2955
COc1cccc(NC(=O)c2cnc(-c3ccc(Cl)cc3)c(-c3ccco3)c2)c1OC [CBK037428] | 146.116
Cc1nn(Cc2cccc(C(=O)Nc3ccc(S(=O)(=O)N4CCCCC4)cc3)c2)c(C)c1Cl [CBK265815] | 114.638
O=C(COc1ccc(S(=O)(=O)N2CCc3ccccc32)cc1Cl)NCc1ccco1 [CBK268293] | 137.993
O=C(NCCN1CCc2ccccc2C1)C1CCCCC1 [CBK305049] | 115.121
COc1cc2c(cc1NC(=O)CSc1nc3ccccc3[nH]1)oc1ccccc12 [CBK265153] | 186.595
CCC1CCCCN1C(=O)c1ccc(C)c(OC)c1 (centres unmarked) [CBK081557] | 104.337
Cc1ccnc(NCC2CCN(CC(=O)Nc3cc(C)no3)C2)c1 (centres unmarked) [CBK306121] | 114.26
CC(=O)N[C@H](Cc1c[nH]c2ccccc12)C(=O)N1CCN(c2ccc(C(F)(F)F)cc2)CC1 [CBK091314] | 113.518
O=C(C1CCCC1)N1C[C@@H]2CCCCN(Cc3cccnc3)[C@@H]2C1 [CBK285492] | 130.499
CC(C)Nc1cc(SCc2ccc(F)cc2)ncn1 [CBK107158] | 100.62
CCOc1ccc(NCc2ccccc2NS(=O)(=O)c2ccc(C)cc2)cc1 [CBK056876] | 83.1157
CCC(CO)Nc1cncc(-c2ccccc2CO)n1 (centres unmarked) [CBK065775] | 147.779
COc1ccccc1CNc1ccc(S(N)(=O)=O)cc1 [CBK288476] | 82.2703
CC(C)Cc1cc(CNC(=O)Nc2cc(-c3cccnc3)nn2C)no1 [CBK307048] | 142.116
COCC(=O)N1CCCC(c2nc(C)n3c(C)csc23)C1 (centres unmarked) [CBK285214] | 128.456
Cc1cc(C(=O)N2CCC3(C/C=C/CCOc4ccccc4C(=O)NCCCNC3=O)CC2)no1 [CBK292155] | 103.005
CC(=O)Nc1sc(/C(C#N)=C/c2cccc(Oc3ccccc3)c2)nc1-c1ccc(C)cc1 [CBK264895] | 115.501
OCCN1CCN(Cc2nc(O)c3ccccc3n2)CC1 [CBK266089] | 165.345
O=C(Nc1ccc2c(c1)CS(=O)(=O)C2)c1cccs1 [CBK057563] | 112.911
CCN(CC)CC/N=C1/CCCc2ccccc2N1 [CBK263520] | 100
CCn1cc(NC(=O)CCn2c(C(F)F)cc3cccnc32)cn1 [CBK282769] | 94.9867
COc1ccc(CCNC(=O)C2CCCN(S(=O)(=O)c3ccc4ccccc4c3)C2)cc1 (centres unmarked) [CBK269601] | 127.65
COc1ccc(Cl)cc1N1CCN(CCCCC2NC(=O)NC2=O)CC1 (centres unmarked) [CBK126448] | 105.125
Cc1n[nH]cc1CN(CCCn1ccnc1)Cc1cccc(F)c1 [CBK282650] | 113.477
O=C(c1ccc2occc2c1)N1CCCC2(CCN(Cc3ccccc3)C2)C1 (centres unmarked) [CBK136882] | 96.4813

2 entries from above in another layout.
Structure (SMILES)	% of control remaining [%]
CCC(CO)Nc1cncc(-c2ccccc2CO)n1 (centres unmarked) [CBK065775]	147.779
COc1ccccc1CNc1ccc(S(N)(=O)=O)cc1 [CBK288476]	82.2703

(list continues)

Structure (SMILES) | % of control remaining [%]
CCNC(=S)NNC(=O)CCn1c2ccccc2c2ccccc21 [CBK262564] | 100
CS(=O)(=O)N1CC2(CCN(C(=O)N(CCN)CCc3ccc(Cl)cc3)CC2)c2ccccc21 [CBK001687C] | 79.1481
O=C(NCCc1c[nH]c2ccccc12)c1cc2c(ccc3ccccc32)oc1=O [CBK264550] | 100
Cn1cc(Nc2nc(-c3ccc4c(c3)CCCN4S(C)(=O)=O)cs2)cn1 [CBK306236] | 87.7917
Cc1cc(NS(=O)(=O)c2cccc3nsnc23)n(C)n1 [CBK067246] | 142.369
O=C(c1ccc2[nH]ccc2c1)N1CCN(c2ncccn2)CC1 [CBK144500] | 91.2075
O=C(Nc1ccc(OC(F)F)cc1)Nc1c(Br)cnc2cccnc12 [CBK107632] | 124.01
O=C(Cc1ccc(NS(=O)(=O)c2cc(Cl)c(Cl)s2)nc1)N1CCOCC1 [CBK003790] | 117.39
Oc1cccc(OCCOc2nc3cc(Cl)c(Cl)cc3nc2N2CCCC2)c1 [CBK115778] | 88.4532
Cc1nc2c(c(=O)[nH]1)CCN(C(=O)c1cc(C3CC3)oc1C)C2 [CBK283753] | 106.594
CCOc1ccc(-c2c3c(c(-c4ccccc4)n2-c2ccc(N)cc2)C(=O)c2ccccc2C3=O)cc1 [CBK262685] | 100.67
CCN1CCN(C(=O)CN(C)S(=O)(=O)c2ccc(OC)c(C)c2)CC1 [CBK268880] | 76.0834
CCc1nn(CC(=O)NC2CCCC2)c(=O)c2cc3sccc3n12 [CBK284077] | 126.597
O=C(O)CC(NC(=O)C(c1ccccc1)c1ccccc1)c1ccco1 (centres unmarked) [CBK268729] | 142.805
Cc1cccc(/C=C2/SC(=S)N(CC(=O)O)C2=O)n1 [CBK265146] | 131.32
COc1ccccc1N1CCN(C2CCN(Cc3ccc([N+](=O)[O-])cc3)CC2)CC1 [CBK264734G] | 108.441
Cc1n[nH]c(C)c1Sc1ccccc1/N=C/c1ccc([N+](=O)[O-])cc1 [CBK262045] | 100
COc1ccc(C2C(C(=O)c3ccccc3)=C(O)C(=O)N2CCN(C)C)cc1OC (centres unmarked) [CBK263352] | 103.082
CCC(CC)C(=O)N1CCN(Cc2ccccc2)CCC1=O [CBK284830] | 115.688
COc1ccc2c(c1)OC1(CCN(C(=O)C3CCCC3)CC1)CC2O (centres unmarked) [CBK286400] | 125.77
O=C(CN1C(=O)COc2ccccc21)NC1CC1 [CBK270261] | 143.027
CCC(C)(NC(=O)c1ccn(-c2cc(C)ccc2OC)n1)C(=O)OC (centres unmarked) [CBK305282] | 115.064
Clc1cccc(Nc2nc(Br)cn3ccnc23)c1 [CBK066260] | 88.2311
CCC(=O)NC1Cc2cccc3c2N(CCC3)C1=O (centres unmarked) [CBK010667] | 74.7448
CSCCC(=O)N1CCN(c2ncccn2)CC1 [CBK144509] | 109.598
COc1ccccc1OCc1cc(C)c(C(=O)N2CCN(C)CC2c2ccccc2)o1 (centres unmarked) [CBK286273] | 102.237
Clc1ccccc1OCCNC1CCc2[nH]c3ccccc3c2C1 (centres unmarked) [CBK107790] | 106.311

Structure (SMILES) | % of control remaining [%]
COc1ccc(NC(=O)CSc2cnn[nH]2)cc1OC [CBK270010] | 73.8589
O=C(NC(c1ccc2c(c1)CCO2)[C@H]1C[C@@H](O)C1)c1c[nH]c(=O)c(Cl)c1 (some centres unmarked) [CBK306634] | 137.42
CCN1CC2(CCC1=O)CCN(Cc1cccc(C(C)N(C)C)c1)CC2 (centres unmarked) [CBK307250] | 96.2205
CN(Cc1nc2c(s1)CCCC2)C(=O)COc1ccc2nncn2n1 [CBK306758] | 85.3195
O=C(O)CCc1ccc(-c2ccc(F)cc2)n1Cc1ccco1 [CBK265953] | 100
COc1ccc2c(-c3ccccc3)cc(=O)n(CCS(=O)(=O)Oc3ccccc3)c2c1 [CBK296621] | 119.456
Cc1ccc(-c2nc3ncccc3o2)cc1NC(=O)c1ccc(F)cc1 [CBK263043] | 106.707
COc1ccc(Nc2ncnc3c2c(C)c(C)n3CCO)cc1 [CBK288161] | 120.134
Cn1cc(-c2nccnc2OCCn2cccc2)cn1 [CBK107079] | 100
O=C(NCCO)C1CCCN(S(=O)(=O)c2ccc3ccccc3c2)C1 (centres unmarked) [CBK270090] | 108.142
CN(C)C(c1ccccc1)c1nnnn1C1CCCCC1 (centres unmarked) [CBK028032] | 102.464
Fc1ccc(OCCN2CCC3(C2)OCCc2c3[nH]c3ccccc23)cc1 (centres unmarked) [CBK061787] | 100.782
C(=N\n1cnnc1)/c1ccccc1OCc1cccc2ccccc12 [CBK263864] | 145.842
COc1cc(-c2ccc(/N=C/c3ccccc3O)c(OC)c2)ccc1/N=C/c1ccccc1O [CBK261089] | 100
O=C(CN1C(=O)c2ccccc2C1=O)NCc1ccc(C(=O)O)cc1 [CBK262795] | 100
Cc1cccc(NC(=O)NCc2ccccn2)c1 [CBK269422] | 128.989
CC(CCN(C)CCN(C)C)c1ccccc1 (centres unmarked) [CBK261871] | 120.768
COc1ccc(CN2C(=O)CC(C(=O)O)S/C2=N\c2ccc(Cl)cc2)cc1 (centres unmarked) [CBK287259] | 122.416
COc1ccccc1C1(CCNCc2ccc3c(c2)OCO3)CCOC(C)(C)C1 (centres unmarked) [CBK265599G] | 106.717
CCN1CCCCC1CNC(=O)Cn1nc(C)c(C)c1C (centres unmarked) [CBK282208] | 125.503
CN1C[C@@H](NS(=O)(=O)c2ccc(C#N)cc2)C[C@H]1c1nc(-c2ccncc2)no1 [CBK288871] | 108.315
C=C(C)CN1CCN(C(=O)CSc2nccc3ccccc23)CC1 [CBK282712] | 145.007
O=C(NC1CCCC1)c1ccc2ncccc2c1 [CBK200118] | 115.43
CN1CCN(C(=O)c2ccc3nc(-c4ccccc4)c(-c4ccccc4)nc3c2)CC1 [CBK267257] | 102.835
O=C(CN1CCCC1c1ccc(Nc2ccc(F)cn2)cn1)Nc1ccc(F)cc1 (centres unmarked) [CBK285941] | 85.8678
Cn1cc(CN2CCOC(c3nc(C(C)(C)C)cs3)C2)nn1 (centres unmarked) [CBK304783] | 117.103

Given field by field: 2 of the compounds above.
CN1C[C@@H](NS(=O)(=O)c2ccc(C#N)cc2)C[C@H]1c1nc(-c2ccncc2)no1 [CBK288871]
  % of control remaining [%]: 108.315
C=C(C)CN1CCN(C(=O)CSc2nccc3ccccc23)CC1 [CBK282712]
  % of control remaining [%]: 145.007
